Laboratory results: PubChem BioAssay AID1259308 (NCATS, 2017)

Test: 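Knock-downs that increase output of a recombinant reporter protein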 (primary screen)
System: human HEK293 embryonic kidney cells stably expressing firefly luciferase (HEK-CMV-Luc2-Hygro)
Knock-down reagent: single siRNA against human genes, 0.8 pmol siRNA per well
Time to read-out: 72 h
Detection: 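Reporter luminescence and viable-cell signal on separate replicate plates, given as percent of non-targeting control and median/MAD z-scores, plus per-cell luciferase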
Reading the numbers: total luciferase, z-score: higher = more reporter protein produced
Rule for the call: 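Active when the median/MAD z-score for overall luciferase is greater than 3; a gene was taken forward for validation with new siRNAs if at least two of its three siRNAs passed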
Meaning of the calls: active = raised luciferase; inactive = no rise
The deposit covers about 59,000 reagents; shown is an unselected part. In the full data, about 1,510 (2.6%) were called active. 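Calls use total luciferase alone and ignore viability, so some active siRNAs may act by altering cell number.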 The numbers tell different reagents against one gene apart. Not all columns of the deposit are shown. Reagent sequences are not shown.

EDN3 #1
- total luciferase, z-score: 0.112
- call: inactive

EDN3 #2
- total luciferase, z-score: -0.165
- call: inactive

EDN3 #3
- total luciferase, z-score: 0.718
- call: inactive

ST20-AS1 #1
- total luciferase, z-score: -0.213
- call: inactive

ST20-AS1 #2
- total luciferase, z-score: -0.364
- call: inactive

ST20-AS1 #3
- total luciferase, z-score: 1.3
- call: inactive

CENPO #1
- total luciferase, z-score: 3.57
- call: active

CENPO #2
- total luciferase, z-score: -0.038
- call: inactive

CENPO #3
- total luciferase, z-score: 0.909
- call: inactive

ZNHIT6 #1
- total luciferase, z-score: -0.58
- call: inactive

ZNHIT6 #2
- total luciferase, z-score: 0.127
- call: inactive

ZNHIT6 #3
- total luciferase, z-score: -0.267
- call: inactive

GBF1 #1
- total luciferase, z-score: 0.0192
- call: inactive

GBF1 #2
- total luciferase, z-score: -0.877
- call: inactive

GBF1 #3
- total luciferase, z-score: 1.59
- call: inactive

KCNV2 #1
- total luciferase, z-score: -0.341
- call: inactive

KCNV2 #2
- total luciferase, z-score: -0.364
- call: inactive

KCNV2 #3
- total luciferase, z-score: -0.94
- call: inactive

OR4F3 #1
- total luciferase, z-score: -0.436
- call: inactive

OR4F3 #2
- total luciferase, z-score: -0.245
- call: inactive

OR4F3 #3
- total luciferase, z-score: 0.102
- call: inactive

NBPF22P #1
- total luciferase, z-score: -0.174
- call: inactive

NBPF22P #2
- total luciferase, z-score: 0.323
- call: inactive

NBPF22P #3
- total luciferase, z-score: -0.98
- call: inactive

SMS #1
- total luciferase, z-score: -0.324
- call: inactive

SMS #2
- total luciferase, z-score: -1.64
- call: inactive

SMS #3
- total luciferase, z-score: 0.548
- call: inactive

AMD1 #1
- total luciferase, z-score: -0.284
- call: inactive

AMD1 #2
- total luciferase, z-score: -1.31
- call: inactive

AMD1 #3
- total luciferase, z-score: -1.91
- call: inactive

SFRP5 #1
- total luciferase, z-score: -0.353
- call: inactive

SFRP5 #2
- total luciferase, z-score: -1.04
- call: inactive

SFRP5 #3
- total luciferase, z-score: 0.581
- call: inactive
